The record followed here is PubChem BioAssay AID2685 (National Center for Advancing Translational Sciences (NCATS), 2010).

Molecules are shown by their SMILES. Some of the results follow. These are further read-outs of the screen, such as a control signal, another cell line or another target. No call is given for them. The list favours compounds with an active or inconclusive main result. Words in brackets tell the shape of the fitted curve; partial curves, single points and poor fits give uncertain potencies.

The test in a line: qHTS Assay for Lipid Storage Modulators in Drosophila S3 Cells.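 On cell number change: cells counted by Cell Tracker Red CMTPX staining in the red channel.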 To be noted: BODIPY lipid droplet fluorescence, 18-24 h; for cell number change: measured here: cell count max response, cells fed with added oleic acid. In a few lines: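 Laser-scanning cytometry quantifies lipid droplet accumulation (500–530 nm total intensity; droplet/cell object ratio) in oleic acid-fed (400 uM added) Drosophila S3 cells treated with a concentration series. 20 uM Triacsin C defined 100% inhibition.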

Where [1] appears, read: measured here: cell number channel AC50, cells fed with added oleic acid.
Where [2] appears, read: measured here: lipid fluorescence (Fed channel) AC50, cells fed with added oleic acid.

`CC(NC(=O)C(=O)N1CCCCC1)C(c1cccs1)N1CCN(c2ccc(F)cc2)CC1` (stereo unspecified): the cell number change was -2.59%. The AC50 under setting [1] was 4.61 µM [rising, single point]. Also, the AC50 under setting [2] is 29.1 µM [rising, single point].

For the molecule `CN(CCN1CCOCC1)Cc1nc(-c2ccccc2)no1`, the cell number change was 1.09%. For the same molecule, the AC50 under setting [2] was 6.51 µM [falling, single point].

For `COc1ccc(NC(=O)/C=C/c2ccc(OC)c(OC)c2)cn1`, the cell number change was -20.6%. Besides, the AC50 under setting [2] was 0.0058 µM [falling, full curve, poor fit].

Take `CCc1ccccc1NC(=O)COC(=O)c1c(C)nsc1NC`: the cell number change was -31.9%. Further, the AC50 under setting [1] is 6.51 µM [falling, partial curve, poor fit]. Also, under setting [2], the AC50 is 9.2 µM [falling, partial curve, poor fit].

Regarding `Cn1c(/C(C#N)=C(\O)CN2CCN(Cc3ccccc3)CC2)nc2ccccc21`, the cell number change stood at 1.63%. In addition, under setting [2], the AC50 was 29.1 µM [rising, single point].

Regarding `S=C(Nc1cccc(Cl)c1)Nc1ccc2c(c1)OCCO2`, the cell number change is -18.3%. Also, under setting [2], the AC50 is 6.51 µM [rising, single point].

For `Cc1ccc(N2CC(C(=O)OCc3ccc([N+](=O)[O-])cc3)CC2=O)cc1` (stereo unspecified), the cell number change is -35.1%. Moreover, under setting [1], the AC50 is 14.6 µM [falling, partial curve].

Turning to `CC1CC(C)CN(C(=O)c2ccc3ccccc3c2)C1` (stereo unspecified), the cell number change stood at 90.8%. Besides, the AC50 under setting [1] was 10.3 µM [rising, partial curve].

Take `COc1ccc(C(=O)Nc2cc(C)cc(C)c2)cc1S(=O)(=O)N1CCOCC1`: the cell number change is -21%. In addition, the AC50 under setting [2] is 0.411 µM [falling, full curve].

`CCOC(=O)c1cc2c(=O)n3ccccc3nc2n(Cc2ccco2)c1=NC(=O)c1ccc(OC)cc1`: the AC50 reads like this: under setting [1], 0.164 µM [rising, full curve, poor fit]; under setting [2], 0.291 µM [rising, partial curve, poor fit].

For `CC(C)(C)NC(=O)C(c1ccccc1F)N(Cc1ccco1)C(=O)c1csnn1` (stereo unspecified), the cell number change was -20.5%. In addition, the AC50 under setting [2] was 0.58 µM [falling, full curve].

Turning to `O=C(Nc1nnc(-c2ccc(Cl)cc2)o1)c1nc2ccccc2s1`, the cell number change was -27.1%.

For `COC(=O)/C=c1\[nH]c2nnc(C)n2c1=O`, the cell number change was -8.42%. Moreover, the AC50 under setting [2] was 0.00517 µM [falling, full curve, poor fit].

Consider `Brc1ccccc1OCCN1CCOCC1`, for which the cell number change worked out at 8.73%. The AC50 under setting [2] is 2.31 µM [rising, partial curve].

For `Cc1ccc(N(CC(=O)Nc2cc(Cl)ccc2Oc2ccccc2)S(C)(=O)=O)cc1C`, the cell number change amounted to 55%. The AC50 under setting [1] is 25.9 µM [rising, single point].

For the molecule `COC(=O)C1CCN(c2nc3ccccc3nc2C(C#N)C(=O)OCC(C)C)CC1` (stereo unspecified), the cell number change was -5.85%. Under setting [2], the AC50 is 29.1 µM [rising, single point].

As for `O=C(CCSc1ccccc1)N1CCOCC1`, the cell number change is -148%. Also, under setting [1], the AC50 is 14.6 µM [falling, partial curve]. Under setting [2], the AC50 is 23.1 µM [falling, partial curve].

Consider `CCCCNC(=O)c1ccc2c(c1)ncn2C1CCCC1`, for which the cell number change is 102%. Also, the AC50 under setting [1] was 20.6 µM [rising, partial curve].

As to `CCN1C(=O)C(CC(=O)Nc2ccc(F)cc2)N(CCc2ccc(OC)cc2)C1=S` (stereo unspecified), the cell number change is -32.1%. In addition, under setting [1], the concentration at half-maximal activity (AC50) is 20.6 µM [falling, single point]. For the same molecule, under setting [2], the AC50 was 18.4 µM [falling, single point].

Consider `O=C(CCC(=O)N(c1ccccc1)C(C(=O)NC1CCCC1)c1ccncc1)Nc1cccnc1` (stereo unspecified), for which the cell number change was found to be 37.2%. Moreover, the AC50 under setting [1] was 18.4 µM [rising, single point]. Besides, under setting [2], the AC50 is 16.4 µM [rising, partial curve].

Consider `CCOC(=O)[C@H]1[C@H]2COc3ccccc3[C@@H]2N2C(=O)c3cc(OC)c(OC)cc3NC(=O)[C@@]12C`, for which the cell number change is -52.3%. Moreover, the AC50 under setting [1] is 29.1 µM [falling, partial curve, poor fit]. Besides, the AC50 under setting [2] was 36.6 µM [falling, partial curve, poor fit].

Turning to `COc1ccc(OC)c(Nc2nc(N)c([N+](=O)[O-])c(NCc3ccccc3)n2)c1`, under setting [1], the AC50 was 0.146 µM [rising, full curve, poor fit].

Consider `O=C(COC(=O)c1c(F)cccc1F)NCc1ccc2c(c1)OCO2`, for which the cell number change stood at 20.3%. Besides, the AC50 under setting [2] is 0.259 µM [falling, full curve].

As to `Fc1cccc(NC(=S)NNc2ccccc2)c1`, the cell number change was -5.56%. Further, the AC50 under setting [2] was 29.1 µM [rising, single point].

For `Nc1nn(-c2cccc(F)n2)cc1-c1ccc(Cl)cc1`, the concentration at half-maximal activity (AC50) under setting [2] is 0.651 µM [rising, single point].

For the molecule `O=C(COC(=O)COc1ccc(Cl)cc1)Nc1ncc(Br)s1`, the cell number change was -34.9%. Also, the half-maximal activity concentration (AC50) under setting [1] is 20.6 µM [falling, single point].

As for `Brc1cc2c(cc1C1Nc3ccccc3C3C=CCC31)OCO2` (stereo unspecified), the cell number change was found to be 4.89%. In addition, the AC50 under setting [2] is 0.651 µM [rising, partial curve].

For the molecule `NC(=O)CC(NC(=O)Cc1ccc(Br)cc1)c1ccc(NCCN2CCCCC2)c([N+](=O)[O-])c1` (stereo unspecified), the cell number change is -2.27%. Under setting [2], the AC50 was 0.651 µM [falling, partial curve, poor fit].

Turning to `CCC(CC)Nc1ccc(C(CC(N)=O)NC(=O)Cc2cccc3ccccc23)cc1[N+](=O)[O-]` (stereo unspecified), the cell number change came to 139%. Besides, the AC50 under setting [2] was 29.1 µM [falling, single point].

As for `Cc1ccc(N2CC(C(=O)N3CCCCCC3)CC2=O)cc1` (stereo unspecified), the cell number change stood at 13.9%.

`CCC(C)(C)c1ccc(OCCCC[n+]2ccc(C)cc2)c(C(C)(C)CC)c1`: the cell number change was -85%. Further, under setting [1], the AC50 is 18.4 µM [falling, partial curve]. For the same molecule, under setting [2], the AC50 was 16.4 µM [falling, partial curve].

In the case of `Cc1nc2nc(COc3ccccc3)nn2c(C)c1Cl`, the cell number change turned out to be 3.26%. Also, under setting [2], the AC50 was 9.2 µM [rising, partial curve].

`Cc1nc2ccccc2c(=O)n1N(c1ccccc1)c1ccccc1`: the cell number change is -3.05%.

In the case of `CSCc1c(C(=O)Nc2ccc3c(c2)OCO3)oc2ccccc12`, the cell number change was -26.3%. In addition, the AC50 under setting [2] is 5.62 µM [rising, single point].

In the case of `COc1ccc(OCCSc2nnc3sc4ccccc4n23)cc1`, the cell number change is -16.8%.

On to `O=C(CNCC1CCCO1)N1CCN(S(=O)(=O)c2ccc3ccccc3c2)CC1` (stereo unspecified), for which the cell number change is -14%. Besides, the AC50 under setting [1] is 0.092 µM [falling, full curve, poor fit].

For `COc1ccc(-n2c(C)cc(=O)c3c2CC(C)(C)CC3=O)cc1`, the cell number change is -45.8%. Further, the AC50 under setting [1] was 29.1 µM [falling, partial curve, poor fit]. Moreover, the AC50 under setting [2] is 0.58 µM [falling, full curve].
